US12392768B2, “Methods for determining blood gas or metabolic parameters” (RADIOMETER MEDICAL APS, priority 2019, dated 2025)
Structures can show the parent of a compound that is named as a salt.

Experiment: Anti-platelet drug interference test on ABL90 parameters (Example 5)
Conditions: for interference on assessed ABL parameters: at the tested concentrations in heparinized blood; for Fraction of maximum interference, Ca^2+ (mmol/L): max. allowed interference 0.02 mmol/L; for Fraction of maximum interference, Ca^2+ (mmol/L) / Fraction of maximum interference, tBil (μmol/L) / Fraction of maximum interference, Glu (mmol/L) / Fraction of maximum interference, Lac (mmol/L) / Fraction of maximum interference, K^+ (mmol/L) / Fraction of maximum interference, Na^+ (mmol/L) / Fraction of maximum interference, tHb (g/dL) / Fraction of maximum interference, COHb (%) / Fraction of maximum interference, MetHb (%): eptifibatide 20 μM, tirofiban 1 μM, iloprost 100 nM or 1 μM, MgSO4 12 mM; for Fraction of maximum interference, tBil (μmol/L): max. allowed interference 30 μmol/L; for Fraction of maximum interference, Glu (mmol/L) / Fraction of maximum interference, Lac (mmol/L): max. allowed interference 0.1 mmol/L; for Fraction of maximum interference, K^+ (mmol/L): max. allowed interference <0.1 mmol/L; for Fraction of maximum interference, Na^+ (mmol/L): max. allowed interference <1 mmol/L; for Fraction of maximum interference, tHb (g/dL): max. allowed interference <0.5 g/dL; for Fraction of maximum interference, COHb (%) / Fraction of maximum interference, MetHb (%): max. allowed interference <1%

Row | Compound | interference on assessed ABL parameters | Fraction of maximum interference, Ca^2+ (mmol/L) | Fraction of maximum interference, tBil (μmol/L) | Fraction of maximum interference, Glu (mmol/L) | Fraction of maximum interference, Lac (mmol/L) | Fraction of maximum interference, K^+ (mmol/L) | Fraction of maximum interference, Na^+ (mmol/L) | Fraction of maximum interference, tHb (g/dL) | Fraction of maximum interference, COHb (%) | Fraction of maximum interference, MetHb (%)
1 | CCCCS(=O)(=O)N[C@@H](Cc1ccc(OCCCCC2CCNCC2)cc1)C(=O)O [Tirofiban, tirofiban hydrochloride monohydrate] | no interference | 0.1 | 0.000 | 0.8 | 0 | 0 | 0 | 0.12 | 0.06 | 0.04
2 | CC#CCC(C)[C@H](O)/C=C/[C@@H]1[C@H]2C/C(=C/CCCC(=O)O)C[C@H]2C[C@H]1O (stereo partly drawn) [Iloprost, iloprost] | no interference | 0.1 | 0.013 | 0.86 | 0.62 | 0.18 | 0.14 | 0.12 | 0.08 | 0.04
3 | eptifibatide acetate | – | 0.2 | 0.013 | 0 | 0.6 | 0 | 0.4 | 0.04 | 0.02 | 0.08
4 | O=S(=O)([O-])[O-].[Mg+2] [MgSO4] | shows interference | 2.7 | 0.140 | 0.2 | 4.6 | 2.0 | 5.6 | 0.08 | 0.04 | 0.04
